Results on 71 compounds are retold here after the supplement of paper PMC4749390.

Where a name gives a salt, the structure may show the parent alone. Some of the results follow. Single values are uncertain here, since repeats match poorly.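 Wild-type human LRH-1, a heavily sumoylated nuclear receptor, is tetracycline-inducible in stable JEG3 cells. RT-qPCR measured SUMO-sensitive APOC3 and MUC1 transcripts, which rise with SUMO-less LRH-1 or UBC9 knockdown, versus TBP and DMSO controls. Robust Z-scores beyond ±2 flagged primary hits, followed by toxicity and TBP filtering.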

The test concerns JEG3 expressing hLRH-1. The test is described as follows: APOC3 transcript change (ddCt vs TBP and DMSO), Z-score over library; higher = higher APOC3 expression. The following applies: 10 µM; time (hr): 24.
Consider `CC(=O)OCC(=O)[C@@]1(O)CCC2C3CCC4=CC(=O)C=CC4(C)C3[C@@H](O)C[C@@]21C` (stereo partly specified) [prednisolone acetate], for which the “APOC3 transcript change (Z-score)” value was found to be 0.0674.
Then `Cc1ccccc1OCC(O)CO` (stereo unspecified) [mephenesin], with -0.345.
Then `N=C(N)N` [guanidine carbonate], with -0.673.
Under `OCCN1CCN(CCCN2c3ccccc3Sc3ccc(Cl)cc32)CC1` [perphenazine] stands 0.821.
On to `CN[C@@H]1[C@@H](O)[C@@H](O[C@@H]2[C@@H](O)[C@H](O[C@H]3OC(CN)=CC[C@H]3N)[C@@H](N)C[C@H]2N)OC[C@]1(C)O` [sisomicin sulfate], for which the “APOC3 transcript change (Z-score)” value was -0.709.
Under `COc1ccc(C[C@H](N)C(=O)N[C@@H]2[C@@H](CO)OC(n3cnc4c(N(C)C)ncnc43)[C@@H]2O)cc1` (stereo partly specified) [puromycin hydrochloride] stands -5.63.
Then `CN(C)C(=O)C(CCN1CCC(O)(c2ccc(Cl)cc2)CC1)(c1ccccc1)c1ccccc1` [Loperamide hydrochloride], with 0.496.
Then `CN(C)CCC=C1c2ccccc2CCc2ccccc21` [Amitriptyline hydrochloride], with -0.826; and `CC(C)OC(=O)CCC/C=C\C[C@@H]1[C@@H](/C=C/[C@@H](O)COc2cccc(C(F)(F)F)c2)[C@H](O)C[C@@H]1O` [travoprost], with 0.939.
Regarding `CCC(=O)Oc1ccc2c(c1)CC[C@@H]1[C@@H]2CC[C@]2(C)[C@@H](OC(=O)CC)CC[C@@H]12` [estradiol dipropionate], the “APOC3 transcript change (Z-score)” value was -0.739.
Under `Clc1ccccc1CN1CCc2sccc2C1` [ticlopidine hydrochloride] stands -1.4; under `CCCC1O[C@@H]2C[C@H]3[C@@H]4CCC5=CC(=O)C=C[C@]5(C)[C@H]4[C@@H](O)C[C@]3(C)[C@]2(C(=O)CO)O1` (stereo partly specified) [budesonide], 0.532.
Under `OCC(O)CN1CCN(c2ccccc2)CC1` (stereo unspecified) [dropropizine] stands -0.0917; under `CN1C2CC[C@H]1C[C@@H](OC(=O)C(O)c1ccccc1)C2` (stereo partly specified) [homatropine bromide], 0.104; under `CC(COc1ccccc1)N(CCCl)Cc1ccccc1` (stereo unspecified) [Phenoxybenzamine hydrochloride], -1.11.
Then `CN(C/C=C/c1ccccc1)Cc1cccc2ccccc12` [naftifine hydrochloride], with -0.02.
In the case of `CC(=O)[C@H]1CCC2C3C=CC4=CC(=O)CC[C@@]4(C)C3CC[C@@]21C` (stereo partly specified) [dydrogesterone], the “APOC3 transcript change (Z-score)” value was 0.287.
Then `COC1=CC(=O)C[C@@H](C)[C@]12Oc1c(Cl)c(OC)cc(OC)c1C2=O` [griseofulvin], with 1.35; and `CCOC(=O)N1CCC(=C2c3ccc(Cl)cc3CCc3cccnc32)CC1` [loratadine], with -0.654; and `CCOc1nc2cccc(C(=O)O)c2n1Cc1ccc(-c2ccccc2-c2nn[nH]n2)cc1` [candesartan], with -0.831.
Then `CC[C@@H]1C(=O)OC[C@@H]1Cc1cncn1C` [(+)-Pilocarpine hydrochloride], with -1.01; and `CCCCCN(CCCCC)C(=O)C(CCC(=O)O)NC(=O)c1ccc(Cl)c(Cl)c1` (stereo unspecified) [Lorglumide sodium], with 0.0633; and `Cn1nnnc1SCC1=C(C(=O)O)N2C(=O)C(NC(=O)C(OC=O)c3ccccc3)C2SC1` (stereo unspecified) [cefamandole nafate], with -0.254.
Under `CC[C@H]1OC(=O)C[C@@H](O)[C@H](C)[C@@H](O[C@@H]2O[C@H](C)[C@@H](O[C@H]3C[C@@](C)(O)[C@@H](O)[C@H](C)O3)[C@H](N(C)C)[C@H]2O)[C@@H](CC=O)C[C@@H](C)C(=O)/C=C/C(C)=C/[C@@H]1CO[C@@H]1O[C@H](C)[C@@H](O)[C@@H](OC)[C@H]1OC` [tylosin tartrate] stands -0.382; under `CN1C2CCCC1CC(NC(=O)c1nn(C)c3ccccc13)C2` (stereo unspecified) [granisetron hydrochloride], 0.512.
With `CC1=C(/C=C/C(C)=C/C=C/C(C)=C/C=C/C=C(C)/C=C/C=C(C)/C=C/C2=C(C)CCCC2(C)C)C(C)(C)CCC1` [beta-carotene], the “APOC3 transcript change (Z-score)” value is 0.278.
Then `COc1ccc(C(=O)c2ccccc2)c(O)c1` [oxybenzone], with -0.512.
Under `COc1ncnc(NS(=O)(=O)c2ccc(N)cc2)c1OC` [sulfadoxine] stands 1.21.
`CCS(=O)(=O)CCn1c([N+](=O)[O-])cnc1C` [tinidazole]: the “APOC3 transcript change (Z-score)” value is -0.0424.
Regarding `COc1ccc(C(=O)CC(=O)c2ccc(C(C)(C)C)cc2)cc1` [avobenzone], the “APOC3 transcript change (Z-score)” value is -0.00456.
Under `CC[N+](C)(CC)CCOC(=O)C(O)(c1ccccc1)C1CCCCC1` (stereo unspecified) [oxyphenonium bromide] stands -0.195; under `CC12CCC3C(=CCc4cc(O)ccc43)C1CCC2=O` (stereo unspecified) [equilin], 0.416.
Under `CN1CCc2c(c3ccccc3n2Cc2ccccc2)C1` [mebhydrolin naphthalenesulfonate] stands 0.532.
Under `CCCCCC(=O)O[C@]1(C(C)=O)CC[C@H]2[C@@H]3CCC4=CC(=O)CC[C@]4(C)[C@H]3CC[C@@]21C` [hydroxyprogesterone caproate] stands 0.546; under `CC[N+](CC)(CC(=O)Nc1c(C)cccc1C)Cc1ccccc1` [denatonium benzoate], -0.227.
Take `Cc1cc(C)cc(OCC2CNC(=O)O2)c1` (stereo unspecified) [metaxalone]: the “APOC3 transcript change (Z-score)” value is 1.03.
Then `CCCCc1nc(Cl)c(CO)n1Cc1ccc(-c2ccccc2-c2nn[nH]n2)cc1` [losartan], with -0.327; and `CN1C(C(=O)Nc2ccccn2)=C(O)c2ccccc2S1(=O)=O` [piroxicam], with 0.401.
Then `C[C@@H](O)[C@H]1C(=O)N2C(C(=O)O)=C(S[C@@H]3CN[C@H](C(=O)N(C)C)C3)[C@H](C)[C@H]12` [meropenem], with 0.296; and `C[C@@H]1O[C@@H](OC[C@H]2O[C@@H](Oc3c(-c4ccc(OCCO)c(OCCO)c4)oc4cc(OCCO)cc(O)c4c3=O)[C@H](O)[C@@H](O)[C@@H]2O)[C@H](O)[C@H](O)[C@H]1O` [troxerutin], with -0.969.
Under `O=C(CCNNC(=O)c1ccncc1)NCc1ccccc1` [Nialamide] stands -0.457; under `CN(C)CCOC(c1ccccc1)c1ccccc1` [Diphenhydramine hydrochloride], -0.326; under `O=C1C(=O)C([C@H]2CC[C@H](c3ccc(Cl)cc3)CC2)=C(O)c2ccccc21` [atovaquone], -1.4.
Turning to `C[C@H](N[C@@H](CCc1ccccc1)C(=O)O)C(=O)N1Cc2ccccc2C[C@H]1C(=O)O` [quinaprilat], the “APOC3 transcript change (Z-score)” value is -0.568.
Under `Cn1c(=O)c2c(ncn2CC(O)CO)n(C)c1=O` (stereo unspecified) [dyphylline] stands -0.857; under `C[C@]12C=CC(=O)C=C1CC[C@H]1[C@@H]3C[C@@H](O)[C@](O)(C(=O)CO)[C@@]3(C)C[C@H](O)[C@@]12F` [triamcinolone], 1.09; under `Oc1ccnc(S)n1` [2-thiouracil], -0.388.
Under `CN1C(=O)OC(C)(C)C1=O` [trimethadione] stands -0.434.
As for `CC(C)NC[C@H](O)COc1cccc2ccccc12` [dexpropranolol hydrochloride], the “APOC3 transcript change (Z-score)” value was found to be 0.292.
Consider `COc1cc2ncnc(Nc3ccc(F)c(Cl)c3)c2cc1OCCCN1CCOCC1` [gefitinib], for which the “APOC3 transcript change (Z-score)” value is -0.804.
Then `C[N+](C)(CCOc1ccccc1)Cc1ccccc1` [bephenium hydroxynapthoate], with -0.614; and `Cc1c(OCC(F)(F)F)ccnc1CS(=O)c1nc2ccccc2[nH]1` (stereo unspecified) [lansoprazole], with -0.0619.
Then `CCO/C(O)=C1\C(COCCN)=NC(C)=C(C(=O)OC)C1c1ccccc1Cl` (stereo unspecified) [amlodipine besylate], with 0.449; and `CCC(=O)O[C@H]1[C@H](O[C@@H]2[C@@H](C)[C@H](O[C@H]3C[C@@](C)(OC)[C@@H](O)[C@H](C)O3)[C@@H](C)C(=O)O[C@H](CC)[C@@](C)(O)[C@H](O)[C@@H](C)C(=O)[C@H](C)C[C@@]2(C)O)O[C@H](C)C[C@@H]1N(C)C` [erythromycin estolate], with 0.215.
Then `NCCNCCNCCN` [trientine hydrochloride], with 0.375.
In the case of `Cc1ccnc(NS(=O)(=O)c2ccc(N)cc2)n1` [sulfamerazine], the “APOC3 transcript change (Z-score)” value was determined as 1.29.
As for `Cc1cc(-n2c(=O)[nH]c(=O)n(C)c2=O)ccc1Oc1ccc(SC(F)(F)F)cc1` [toltrazuril], the “APOC3 transcript change (Z-score)” value was found to be 1.57.
Then `O=C(CCCCCCC(=O)Nc1ccccc1)NO` [vorinostat], with -0.957; and `CNCCC(Oc1ccc(C(F)(F)F)cc1)c1ccccc1` (stereo unspecified) [Fluoxetine hydrochloride], with -0.218; and `NCCCC(O)(P(=O)(O)O)P(=O)(O)O` [alendronate sodium], with -0.247.
Then `CNC[C@H](O)[C@@H](O)[C@H](O)[C@H](O)CO` [meglumine], with 0.28; and `Cc1ccc(C(=O)C(C)CN2CCCCC2)cc1` (stereo unspecified) [tolperisone hydrochloride], with -1.06; and `CCN(CC)CCOC(=O)C1(C2CCCCC2)CCCCC1` [dicyclomine hydrochloride], with -0.0926.
With `NC(=O)c1ncn([C@@H]2O[C@H](CO)[C@@H](O)[C@H]2O)n1` [ribavirin], the “APOC3 transcript change (Z-score)” value was determined as 0.943.
Consider `O=c1c(Cc2c(O)oc3ccccc3c2=O)c(O)oc2ccccc12` [dicumarol], for which the “APOC3 transcript change (Z-score)” value is -0.686.
Under `CCN(CC)CCOC(=O)c1ccc(N)cc1` [procaine hydrochloride] stands -0.108.
Consider `CC(C)CCCC(C)N` (stereo unspecified) [octodrine], for which the “APOC3 transcript change (Z-score)” value is 1.25.
As for `CC(C)(C)CC(C)(C)c1cc(Cc2cc(C(C)(C)CC(C)(C)C)cc(-n3nc4ccccc4n3)c2O)c(O)c(-n2nc3ccccc3n2)c1` [bisoctrizole], the “APOC3 transcript change (Z-score)” value was -0.0962.
For `CN1CCN(CCCN2c3ccccc3Sc3ccc(Cl)cc32)CC1` [Prochlorperazine dimaleate], the “APOC3 transcript change (Z-score)” value is 0.867.
Under `CC(=O)O[C@H]1C[C@@]2(C)[C@@H](C[C@@H](O)[C@H]3[C@@]4(C)CC[C@@H](O)[C@@H](C)[C@@H]4CC[C@@]32C)/C1=C(\CCC=C(C)C)C(=O)O` [fusidic acid] stands -0.63; under `CC(C)N1CCN(c2ccc(OC[C@H]3CO[C@](Cn4cncn4)(c4ccc(Cl)cc4Cl)O3)cc2)CC1` [terconazole], -0.401.
